Test results taken from paper PMC8178085.
These are yes or no findings as the source states them, for the method shown. Binding seen in cells or lysates may run through a third protein. Some results given as binding are weak or reduced against the parent protein; the word gives no strength.

By UniProt entry, the sequences of proteins in these tests, tags left out.
UniProt P10361: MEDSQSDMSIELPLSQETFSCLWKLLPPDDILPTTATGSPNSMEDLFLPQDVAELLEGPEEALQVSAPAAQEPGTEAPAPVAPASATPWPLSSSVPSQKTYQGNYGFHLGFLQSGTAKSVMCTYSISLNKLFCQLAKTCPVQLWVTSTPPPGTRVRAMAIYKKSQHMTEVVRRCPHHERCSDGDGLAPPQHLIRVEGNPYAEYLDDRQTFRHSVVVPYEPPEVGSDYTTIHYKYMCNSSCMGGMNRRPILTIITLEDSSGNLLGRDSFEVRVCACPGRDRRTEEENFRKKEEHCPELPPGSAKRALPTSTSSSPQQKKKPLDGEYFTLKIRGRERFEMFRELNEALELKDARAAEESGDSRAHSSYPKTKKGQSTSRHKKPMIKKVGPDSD

Molecular target: p53 (UniProt P10361)
Experiment: co-IP; coIP of USP11 and p53; cells, antibodies and bait not described; the section is on microglial cells

binding: binds
B1: Ubiquitin-specific protease 11 (enzyme, UniProt Q5D006 1-921)
chain: MAAVAADPAAAAVPASAEDRETQPEAMPDLDQQWRQIGNGRERPLRAGESWFLVEKHWYKQWEAYVKGGDQDASTFPGSINNSGLFEDQISWHLRERLVEGDDYVLLPAPAWNYLVSWYGLKDDQPPIERKVIELPGIRKVEVYPIELLLVQHSDMETALTIQFSYSDSVDLVLQTAREQFLVEPQEDTRLWTKNSEGSLDRLCNTQITLLDACLETGQLVIMETRNKDGTWPSAQLCGMNNMPDEDEDFQGQPGICGLTNLGNTCFMNSALQCLSNVPQLTEYFLNNRYLEELNFRNPLGMKGELAEAYADLVKQTWSGYHRSIVPNVFKNKVGHFASQFLGYQQHDSQELLSFLLDGLHEDLNRVKKKEYVELCNGAGRPDLEVAQEAWQNHKRRNDSVIVDTFHGLFKSTLVCPDCGNVSVTFDPFCYLSVPLPVCSRRVLEVFFVPMDPRRKPEQHRVVVPKKGNISDLCVALSTHTSVAPDKMIVADVFSHRFYKLYQLEDPLSGILDRDDIFVYEVTGRIEPVEGSRDDIVVPVYLRERTPSRDYNNSYYGLILFGHPLLVSVPRDRFSWEGLYNILMYRLSRYVTKPTSDDDDGDEKGDENEDEDVEDDSSSEEEKEEMSGPTDNDGTQESEQEQAGTSSGVTGRCPSLLDNSLHTSQWPPRRRRKQLFTLQTVNSNGTSDRTTSPEEAQTQPYIAMDWEPEMKRRYYDEVEAEGYVKHDCVGYMLKKNPVQLKECIKLFTTVETLEKENPWYCSSCKQHQLATKKLDLWMLPEVLIIHLKRFSFSKFSREKLDTLVQFPIRDLDFSEFVIKPKNESAPDLYKYDLIAVSNHYGGMRDGHYTTFACNKDSGQWHYFDDNSVSPVNENQIESKAAYVLFYQRQDVGRRQSQTASSETPTSPASSSTPNSDIMDVN
